Patent US8715920B2, “Composition for preserving platelets during photosensitization” (Biovec Transfusion, LLC, priority 2010, dated 2014)
Some entries repeat one wording, which the source may state once for all of them. Positions of bridges follow the written chain, without caps; N, C: chain ends. Non-standard residues stand in square brackets, D forms with d. Residues, ends and D or L forms follow the SMILES beside them. hArg = N=C(N)NCCCC[C@H](N)C(=O)O; Mpa = O=C(O)CCS

Assay: Removal of preservative agents from platelet solutions by diafiltration, HPLC detection
Set-up: species or system human
Settings: after diafiltration, 4 volume discontinuous plus 10 volume constant volume exchange

Row | SMILES | removal from platelet preservation solution
1 | CC1CNc2c(cccc2S(=O)(=O)N[C@@H](CCCNC(=N)N)C(=O)N2CC[C@@H](C)C[C@@H]2C(=O)O)C1 (stereo partly drawn) [Argatroban] | below the level of detection
2 | N=C(N)NCCCC[C@@H]1NC(=O)CCSSC[C@@H](C(N)=O)NC(=O)[C@@H]2CCCN2C(=O)[C@H](Cc2c[nH]c3ccccc23)NC(=O)[C@H](CC(=O)O)NC(=O)CNC1=O [Eptifibatide] ([Mpa][hArg]GDWPC-NH2; disulfide 1-7) | below the level of detection
3 | CCCCS(=O)(=O)N[C@@H](Cc1ccc(OCCCCC2CCNCC2)cc1)C(=O)O [Tirofiban] | below the level of detection
